{"source": "paper PMC7532662", "molecular_target": "α-tubulin, endogenous (human (endogenous in MDA-MB-231 and 293T))", "assay": "co-IP; lysate of SYTL4-overexpressing MDA-MB-231 cells, precipitated with anti-α-tubulin antibody, western blot", "note": "No constants are given. Whether binding was seen depends on the method and setting. In cells and extracts the contact can be indirect. Binding can be weak; no strength is given. Where a sequence is shown, tags or fusion partners need not be part of it."}
{"binder": "Synaptotagmin-like 4 (SYTL4), overexpressed without a tag (protein, UniProt Q96C24 1-671) MSELLDLSFLSEEEKDLILSVLQRDEEVRKADEKRIRRLKNELLEIKRKGAKRGSQHYSDRTCARCQESLGRLSPKTNTCRGCNHLVCRDCRIQESNGTWRCKVCAKEIELKKATGDWFYDQKVNRFAYRTGSEIIRMSLRHKPAVSKRETVGQSLLHQTQMGDIWPGRKIIQERQKEPSVLFEVPKLKSGKSALEAESESLDSFTADSDSTSRRDSLDKSGLFPEWKKMSAPKSQVEKETQPGGQNVVFVDEGEMIFKKNTRKILRPSEYTKSVIDLRPEDVVHESGSLGDRSKSVPGLNVDMEEEEEEEDIDHLVKLHRQKLARSSMQSGSSMSTIGSMMSIYSEAGDFGNIFVTGRIAFSLKYEQQTQSLVVHVKECHQLAYADEAKKRSNPYVKTYLLPDKSRQGKRKTSIKRDTINPLYDETLRYEIPESLLAQRTLQFSVWHHGRFGRNTFLGEAEIQMDSWKLDKKLDHCLPLHGKISAESPTGLPSHKGELVVSLKYIPASKTPVGGDRKKSKGGEGGELQVWIKEAKNLTAAKAGGTSDSFVKGYLLPMRNKASKRKTPVMKKTLNPHYNHTFVYNGVRLEDLQHMCLELTVWDREPLASNDFLGGVRLGVGTGISNGEVVDWMDSTGEEVSLWQKMRQYPGSWAEGTLQLRSSMAKQKLGL", "values": [{"measurement": "binding", "result": "binds"}]}
